Assay results: PubChem BioAssay AID504444 (National Center for Advancing Translational Sciences (NCATS), 2011)
About 7,500 (2.1%) of roughly 360,000 compounds were called active. This list was built around the results that the source calls inconclusive (neither active nor inactive); the mix of calls is not that of the screen. Calls come from the whole dose curve; as a rule, active = well fitted inhibition curve with a large enough effect; inconclusive = small, poorly fitted or top-dose-only effect, or effect the other way; inactive = flat fitted curve, though single readings scatter. Where the call is inconclusive, the potency comes from a doubtful curve fit.

assay: Nrf2 qHTS screen for inhibitors; details: A549 ARE-Fluc reporter, luciferase luminescence, 18-24 h; series mostly up to 46 µM; note: nearly all actives have a fitted effect of over 60% in size
In short: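 Nrf2 function is reported as luminescence of an ARE-controlled luciferase in A549 cells. Compounds were tested at several concentrations, and a CellTiter-Fluor read on the same wells flagged cytotoxicity.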
Potency is the fitted concentration of half-maximal effect.

Compound | Potency
CS(=O)(=O)N(CC(=O)Nc1ccc(Cl)c(Cl)c1)C1CCCCC1 | inconclusive: 25.9 µM [falling, single point]
COC(=O)C1CCN(C(=O)CCCOc2ccccc2)CC1 | inconclusive: 18.4 µM [activator, partial curve]
C=C(C)COc1ccc(-c2[nH]ncc2-c2ccccc2OC)c(O)c1 | inconclusive: 29.1 µM [falling, single point]
CSc1ccc(CCNC(=O)C2CCCN(c3ncnc4c3nc3n4CCCCC3)C2)cc1 (stereo unspecified) | inactive
Cc1ccc(S(=O)(=O)N2CCC(C(=O)N3CCC(C(=O)NCc4cccnc4)CC3)CC2)cc1 | inconclusive: 0.184 µM [falling, full curve, poor fit]
COc1ccc(C(CCN2CCOCC2)c2c(OC)cc(OC)c3c(-c4ccccc4)cc(=O)oc23)cc1 (stereo unspecified) | inactive
O=C(CNC(=O)c1ccccc1)N[C@H](C(=O)Nc1cc(C(F)(F)F)ccc1Cl)c1ccccc1 | inactive
CN(c1cccc(NC(=O)c2ccc(CN3CCc4ccccc4C3)cc2)c1)S(C)(=O)=O | inconclusive: 29.1 µM [falling, single point]
CCN(CC)c1ccc(NC(=O)/C=C/c2cc(Br)ccc2OC)cc1 | inconclusive: 18.4 µM [falling, single point]
CCNC(=S)N(CCc1c(C)[nH]c2ccccc12)Cc1cccnc1 | inconclusive: 16.4 µM [falling, partial curve, poor fit]
CCC(=O)N1c2ccc(S(=O)(=O)N3CCN(c4ccc([N+](=O)[O-])cc4)CC3)cc2CC1C (stereo unspecified) | inconclusive: 4.61 µM [falling, single point]
Fc1cccc(Cc2noc(CN3CCC(c4ccncc4)CC3)n2)c1 | inconclusive: 25.9 µM [falling, single point]
CC1(C)CC(=O)C2=C(C1)NC1=C(C(=O)c3ccccc31)C2c1ccccc1 (stereo unspecified) | inactive
COc1ccc(C2Nc3ccccc3C(=O)N2c2ccccc2F)cc1COc1ccc(NC(C)=O)cc1 (stereo unspecified) | inactive
O=C(NCCN1CCOCC1)c1cccc(S(=O)(=O)Nc2ccc(F)cc2)c1 | inconclusive: 0.366 µM [falling, full curve]
COc1ccc2c(CN(C)c3ccccc3)cc(=O)oc2c1 | inactive
Cn1nc(C(F)(F)F)c2cc(C(=O)Nc3ccc(F)c(Cl)c3)sc21 | active: 13 µM
O=C(Cn1cc(SCc2ccc(C(F)(F)F)cc2)c2ccccc21)N1CCCCCC1 | inconclusive: 29.1 µM [falling, single point]
COc1ccc(-c2cn3cc(C(F)(F)F)cc(Cl)c3n2)cc1 | inconclusive: 9.2 µM [activator, partial curve]
COC(=O)C(C)N(C(=O)c1cccc(Cl)c1)c1c(C)cccc1C (stereo unspecified) | inactive
CCOC(=O)C1CCN(C(=O)Cn2c(=O)c3cccn3c3cccnc32)CC1 | inconclusive: 29.1 µM [falling, single point]

Three compounds picked at random from the list so far:
Compound | Potency
O=C(CNC(=O)c1ccccc1)N[C@H](C(=O)Nc1cc(C(F)(F)F)ccc1Cl)c1ccccc1 | inactive
C=C(C)COc1ccc(-c2[nH]ncc2-c2ccccc2OC)c(O)c1 | inconclusive: 29.1 µM [falling, single point]
Cn1nc(C(F)(F)F)c2cc(C(=O)Nc3ccc(F)c(Cl)c3)sc21 | active: 13 µM

Remaining list, next part

Compound | Potency
COc1cc(CCC(=O)OCC(=O)Nc2ccc(Br)cc2F)cc(OC)c1OC | inconclusive: 10.3 µM [activator, single point]
O=C(COC(=O)c1ccc([N+](=O)[O-])cc1Cl)NC(=O)c1ccccc1 | inconclusive: 14.6 µM [falling, single point]
COc1ccc(C2CC(c3cccc(C(F)(F)F)c3)=NN2c2ccc(S(N)(=O)=O)cc2)cc1 (stereo unspecified) | active: 23.1 µM
Cc1cccc(N2CCN(CCCNC(=O)C3CCCN(c4ncnc5c4nc4n5CCCCC4)C3)CC2C)c1 (stereo unspecified) | inconclusive: 29.1 µM [falling, single point]
C=CCNc1nc(C(=O)OCC(=O)c2ccc(C)c([N+](=O)[O-])c2)cs1 | inactive
COc1ccc(C2=NN(C(=O)/C=C/c3ccccc3)C(c3ccccc3)C2)c(OC(C)=O)c1 (stereo unspecified) | inconclusive: 13 µM [falling, partial curve]
O=C(NNc1nc(-c2ccc(Cl)cc2)cs1)c1ccco1 | inconclusive: 25.9 µM [falling, partial curve, poor fit]
O=C(NC1CCCCC1)C(c1ccccn1)N(C(=O)Cc1cccs1)c1ccc(Cl)cc1 (stereo unspecified) | inconclusive: 29.1 µM [falling, single point]
Fc1ccc(-c2nc3nc4ccccc4nc3n2Cc2ccco2)cc1 | inconclusive: 13 µM [activator, partial curve]
CCCN1C(=O)c2[nH]nc(-c3ccccc3O)c2C1c1ccc(OCc2ccccc2)c(OCC)c1 (stereo unspecified) | inconclusive: 23.1 µM [falling, single point]
CCc1ccc(NC(=O)C2CCC(CNS(=O)(=O)c3ccc4c(c3)CC(C)N4C(C)=O)CC2)cc1 (stereo unspecified) | inconclusive: 9.2 µM [falling, partial curve]
COc1cc(C(C)=O)ccc1OCc1cc(C(=O)N2CCSCC2)no1 | inconclusive: 16.4 µM [activator, single point]
COc1ccc(NC(=O)c2ccc3c(c2)OCO3)cc1[N+](=O)[O-] | inconclusive: 3.66 µM [activator, full curve]
O=C(Nc1ccc(N2CCCC2)cc1)c1cc2ccccc2o1 | inconclusive: 8.2 µM [activator, partial curve]
Cc1ccccc1OCC(=O)N/N=C/c1cccc(Oc2ccc([N+](=O)[O-])cc2[N+](=O)[O-])c1 | inconclusive: 29.1 µM [falling, single point]
O=C(N/N=C/c1ccc2c(c1)OCO2)C(O)c1ccccc1 (stereo unspecified) | inconclusive: 18.4 µM [activator, single point]
COc1ccc(-c2nc3ccccc3s2)cc1NC(=O)COc1ccccc1C | inactive
O=C(O)CCC(=O)Nc1ccc(Oc2ncnc3cc(Cl)ccc23)nc1 | inconclusive: 23.1 µM [activator, single point]
CSc1nsc(SCC(=O)Nc2ccc(C(C)=O)cc2)n1 | inconclusive: 3.26 µM [activator, single point]
COc1ccc(S(=O)(=O)N(C)C)cc1NC(=O)Cc1c[nH]c2ccccc12 | inconclusive: 25.9 µM [falling, partial curve, poor fit]
